Test results published in publication PMC12670160, “A drug-repurposing screen of FDA- and EMA-approved drugs identifies two NF-κB inhibitors active against eumycetoma” (Journal of Antimicrobial Chemotherapy, 2025).
Structures can show the parent of a compound that is named as a salt. Hit rate of the full screen: of about 5,300 compounds, about 130 (2.5%) showed an effect of 50% or more. The list shows a part of the results.

Test system: M. mycetomatis strain mm55
Conditions: primary screen, metabolic activity vs growth control; 96 h, 2 µM; inhibitor

Row | SMILES | % viability
1 | Cc1ccc(S(=O)(=O)NC(=O)NN2CCCCCC2)cc1 [ONC0000684, tolazamide] | 114.3%
2 | COc1cccc(OC)c1C(=O)N[C@@H]1C(=O)N2[C@@H]1SC(C)(C)[C@@H]2C(=O)O [ONC0000519, methicillin sodium] | 70.35%
3 | Cn1cccc1/C=C1\C(=O)NC(=O)c2ccccc21 [ONC0001666, byk204165] | 98.84%
4 | COc1cc2c(CCNC(C)=O)c[nH]c2cc1Cl [ONC0001544, 6chloromelatonin] | 92.34%
5 | O=C(c1cc2ccccc2o1)N1CCN(Cc2ccccc2)CC1 [ONC0002374, befuraline] | 64.34%
6 | C[C@]12CC[C@@H]3c4ccc(OS(=O)(=O)O)cc4CC[C@H]3[C@@H]1CCC2=O [ONC0003955, estropipate] | 73.24%
7 | Cc1ncc(Cl)cc1NCc1ccc(C(=O)N[C@@H](CC2CCCC2)C(=O)NC2CC2)s1 [ONC0001132, gsk 2830371] | 53.2%
8 | O=C(O)c1ccccc1Nc1ccc(CCc2ccc(Cl)c(Cl)c2)cc1 [ONC0005393, pd118057] | 109.5%
9 | C=CC(C)(C)c1cc(/C=C/C(=O)c2ccc(O)cc2)c(OC)cc1O [ONC0003443, licochalcone a] | 81.44%
10 | CCCCCCCCCCCCc1ccc(S(=O)(=O)Nc2nncs2)cc1 [ONC0000344, pht427] | 87.97%
11 | OC(CCCN1CCCCC1)(c1ccccc1)c1ccccc1 [ONC0003777, diphenidol] | 100.5%
12 | CCN(CC)CCOC(=O)C(c1ccccc1)c1ccccc1 [ONC0003163, adiphenine hydrochloride] | 80.17%
13 | CC1c2ccccc2CN1CC1=NCCN1 (stereo not shown) [ONC0000423, brl44408] | 59.3%
14 | C[C@H]1[C@H](C)CC[C@]2(C(=O)O)CC[C@]3(C)C(=CC[C@@H]4[C@@]5(C)C[C@@H](O)[C@H](O)[C@@](C)(CO)[C@@H]5CC[C@]43C)[C@H]12 [ONC0003267, asiatic acid] | 63.99%
15 | c1ccc(Oc2cccnc2)cc1 [ONC0002752, 3phenoxypyridine] | 89.97%
16 | CCOC(=O)c1ccc(N)cc1 [ONC0003279, benzocaine] | 69.74%
17 | NCCc1c[nH]c2ccc(C(N)=O)cc12 [ONC0000084, 5carboxamidotryptamine] | 55.69%
18 | CN1CCN(c2c(F)cc3c(=O)c(C(=O)O)cn4c3c2OCN4C)CC1 [ONC0005542, marbofloxacin] | 102.2%
19 | N=C(N)NCCCC(NC(=O)C1CCCN1C(=O)C1CSSCCC(=O)NC(Cc2ccc(O)cc2)C(=O)NC(Cc2ccccc2)C(=O)NC(CCC(N)=O)C(=O)NC(CC(N)=O)C(=O)N1)C(=O)NCC(N)=O (stereo not shown) [ONC0002256, desmopressin acetate] | 64.94%
20 | CC(C)(C)CC(C)(C)c1ccc(O)c(Cc2ccc(Cl)cc2Cl)c1 [ONC0003090, clofoctol] | 74.09%
21 | Cc1ccc([N+](=O)[O-])cc1S(=O)(=O)N(C)/N=C/c1cnc2ccc(Br)cn12 [ONC0004555, pik75] | 74.38%
22 | Cc1noc(C)c1-c1ccc(-c2cc(C(N)=O)c(NC(N)=O)s2)c(O[C@H]2CCNC2)c1 [ONC0001292, azd3264] | 69.25%

Row | SMILES | % viability
23 | COc1cc(-c2ccc(=O)[nH]n2)ccc1OC(F)F [ONC0001484, zardaverine] | 83.38%
24 | CC[N+](CC)(CC)CC(=O)Nc1c(C)cccc1C [ONC0003058, qx314] | 58.74%
25 | c1ccc(COCCCc2c[nH]cn2)cc1 [ONC0003620, proxyfan] | 62.87%
26 | CC(C)(N)C(=O)N[C@H](COCc1ccccc1)C(=O)N1CCC2(CC1)CN(S(C)(=O)=O)c1ccccc12 [ONC0000930, ibutamoren mesylate] | 66.04%
27 | CCN(c1cc(C#CCN2CCOCC2)cc(C(=O)NCc2c(C)cc(C)[nH]c2=O)c1C)[C@H]1CC[C@H](N(C)CCOC)CC1 [ONC0003950, epz011989] | 86.7%
28 | CCCC(CCC)C(=O)OC1C[C@H]2CC[C@@H](C1)[N+]2(C)C (stereo partly shown) [ONC0005108, anisotropine methylbromide] | 92.02%
29 | c1cc(OCCN2CCCCC2)cc(-c2n[nH]c3ccc(-c4nc[nH]n4)cc23)c1 [ONC0000900, cc401 hydrochloride] | 73.26%
30 | C#Cc1c[nH]c(=O)[nH]c1=O [ONC0005377, eniluracil] | 108%
31 | CC(=O)CC/C=C(\C)CC/C=C(\C)CC/C=C(\C)CCC=C(C)C [ONC0002238, teprenone] | 74.49%
32 | CCCCNc1c(C(=O)OCC)c(C)nc2c1cnn2CC [ONC0002541, tracazolate] | 76.49%
33 | Nc1cccc(CNC(=O)c2ccc(Oc3ccc(OCc4cccc(F)c4)cc3)nc2)c1 [ONC0000110, ym244769] | 77.61%
34 | NS(=O)(=O)c1cc(-c2nnn[nH]2)c(NCc2cccs2)cc1Cl [ONC0003384, azosemide] | 89.97%
35 | COc1cc(NC(C)CCCN)c2ncccc2c1 (stereo not shown) [ONC0000510, primaquine phosphate] | 72.54%
36 | CCCCC1(COC(=O)CCC(=O)O)C(=O)N(c2ccccc2)N(c2ccccc2)C1=O [ONC0002226, suxibuzone] | 90.86%
37 | CC(C)(Sc1ccncc1-c1ccc(C#N)c2ccccc12)C(=O)O [ONC0001369, verinurad] | 69.39%
38 | O=c1[nH]c(=O)n([C@H]2C[C@H](O)[C@@H](CO)O2)cc1Br [ONC0001774, 5brdu] | 105.2%
39 | C[S+]([O-])CCCCN=C=S (stereo not shown) [ONC0003262, sulforaphane] | 49.62%
40 | Cc1[nH]cnc1-c1ccc(Cl)cc1 [ONC0003829, lofemizole] | 66.9%
41 | OC(CN1CCN(c2cccc(Cl)c2)CC1)C(c1ccccc1)c1ccccc1 (stereo not shown) [ONC0000032, brl15572] | 128.1%
42 | CCn1cc(C(=O)O)c(=O)c2ccc(-c3ccncc3)cc21 [ONC0003664, 1ethyl4oxo74pyridyl14dihydroquinoline3carboxylic acid] | 82.72%
43 | O=c1[nH]c2ccc(Cl)cc2c(N[C@@H]2CN3CCC2CC3)c1-c1nc2ccccc2[nH]1 [ONC0005051, chir124] | 85.58%
44 | Cc1cnc(NC(=O)c2cc(Oc3cnc(C(=O)N(C)C)nc3)c3cc(C)oc3c2)cn1 [ONC0005563, pf04937319] | 103.7%

Row | SMILES | % viability
45 | CCCCCCCCCCCCCCCCOc1nc2ccc(C)cc2c(=O)o1 [ONC0003789, cetilistat] | 70.18%
46 | C/C(=C\c1ccc(C(=O)O)cc1)c1ccc2c(c1)C(C)(C)CCC2(C)C [ONC0000103, ttnpb] | 107.5%
47 | COc1ccc(-c2ccc3c(N4CCOCC4)nc(N4C[C@@H](C)O[C@@H](C)C4)nc3n2)cc1CO [ONC0004694, ku0063794] | 105%
48 | Oc1ccc2c(c1)CC[C@H](c1ccccc1)[C@@H]2c1ccc(OCCN2CCCC2)cc1 [ONC0000907, lasofoxifene tartrate] | 82.51%
49 | Cc1cc(-c2ccccc2)nnc1NCCN1CCOCC1 [ONC0000640, minaprine hydrochloride] | 108.7%
50 | CC(C)(Sc1ccc(CCN(CCCCC2CCCCC2)C(=O)NC2CCCCC2)cc1)C(=O)O [ONC0003356, gw7647] | 78%
51 | CSc1ccc2c(c1)N(CCC1CCCCN1C)c1ccccc1S2 (stereo not shown) [ONC0000545, thioridazine hydrochloride] | 95.22%
52 | CC(CN(C)C)CN1c2ccccc2Sc2ccc(C#N)cc21 (stereo not shown) [ONC0005518, cyamemazine] | 108.9%
53 | CCC1(c2ncc[nH]2)Cc2ccccc2O1 (stereo not shown) [ONC0001573, ku14r] | 68.55%
54 | Cc1nnc(C[C@@H]2C=C(c3ccc(Cl)cc3)c3ccccc3-n3c(C)nnc32)o1 [ONC0000996, betbay 002] | 80.87%
55 | CC1=C(/C=C/C(C)=C/C=C/C(C)=C\C(=O)O)C(C)(C)CCC1 [ONC0000582, isotretinon] | 176.9%
56 | CC/C(=C(/CC)c1ccc(O)cc1)c1ccc(O)cc1 [ONC0003197, diethylstilbestrol] | 93.2%
57 | Cc1cc(Nc2nc(N[C@@H](C)c3ccc(F)cc3)c(C#N)cc2F)n[nH]1 [ONC0005220, az 960] | 143.3%
58 | CC(/C=C/C(=O)NO)=C\[C@@H](C)C(=O)c1ccc(N(C)C)cc1 [ONC0002217, trichostatin a] | 57.9%
59 | O=C1C=CC(=O)C2=C1C1c3ccccc3C2c2ccccc21 [ONC0002508, inca6] | 72.54%
60 | O=C(NC1CCN(Cc2ccccc2)CC1)c1ccc(I)cc1 [ONC0003079, 4ibp] | 71.08%
61 | Cn1cc(-c2cc(Oc3cc(F)c(NC(=O)C4(C(=O)Nc5ccccc5)CC4)cc3F)ccn2)cn1 [ONC0004293, ckitin1] | 61.52%
62 | CCOC(=O)c1c(CSc2ccccc2)n(C)c2cc(Br)c(O)c(CN(C)C)c12 [ONC0000725, arbidol hydrochloride] | 91.51%
63 | CCN1CCN(Cc2ccc(-c3cc4c(N[C@H](C)c5ccccc5)ncnc4[nH]3)cc2)CC1 [ONC0000250, aee788] | 77.84%
64 | C=C(C)C1CC=C(CO)CC1 (stereo not shown) [ONC0003761, perillylalcohol] | 89.33%

In the list so far, 3 have a thiophene ring, fused or not.
Row | SMILES | % viability
7 | Cc1ncc(Cl)cc1NCc1ccc(C(=O)N[C@@H](CC2CCCC2)C(=O)NC2CC2)s1 [ONC0001132, gsk 2830371] | 53.2%
22 | Cc1noc(C)c1-c1ccc(-c2cc(C(N)=O)c(NC(N)=O)s2)c(O[C@H]2CCNC2)c1 [ONC0001292, azd3264] | 69.25%
34 | NS(=O)(=O)c1cc(-c2nnn[nH]2)c(NCc2cccs2)cc1Cl [ONC0003384, azosemide] | 89.97%

A different layout for part of the listing above:

| Row | SMILES | % viability |
| --- | --- | --- |
| 40 | Cc1[nH]cnc1-c1ccc(Cl)cc1 [ONC0003829, lofemizole] | 66.9% |
| 55 | CC1=C(/C=C/C(C)=C/C=C/C(C)=C\C(=O)O)C(C)(C)CCC1 [ONC0000582, isotretinon] | 176.9% |
